One molecule from patent US20190282663A1 (KEROS THERAPEUTICS, published 2019) can be followed below.

These are yes or no findings as the source states them, for the method shown. Some binding calls cover weakened binding; strength is not graded here.

The test addresses T1, growth differentiation factor 11 (GDF11) (UniProt O95390).
T1 sequence (looked up): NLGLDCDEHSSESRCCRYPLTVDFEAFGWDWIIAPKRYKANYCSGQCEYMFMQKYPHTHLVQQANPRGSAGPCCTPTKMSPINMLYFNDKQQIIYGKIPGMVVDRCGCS
The test is described as follows: SPR (Biacore 3000), receptor captured on chip, ligand in solution.

B1: ActRIIa/b+ variant (SEQ ID NO: 150) (receptor)
chain: GAILGRSETQECLFYNANWELERTNQTGVERCEGEKDKRLHCYATWRNISGSIEIVAKGCWLDDFNCYDRTDCVETEENPQVYFCCCEGNMCNEKFSYFPEMEVTQPTS
notes: not shown: Fusion partner and its linker
On to B1, for which the binding result is “binds”.
